This note sets out measurements from PMC3206029.

Sequences of proteins named here, by UniProt entry; tags and fusion partners are left off.
UniProt Q14790: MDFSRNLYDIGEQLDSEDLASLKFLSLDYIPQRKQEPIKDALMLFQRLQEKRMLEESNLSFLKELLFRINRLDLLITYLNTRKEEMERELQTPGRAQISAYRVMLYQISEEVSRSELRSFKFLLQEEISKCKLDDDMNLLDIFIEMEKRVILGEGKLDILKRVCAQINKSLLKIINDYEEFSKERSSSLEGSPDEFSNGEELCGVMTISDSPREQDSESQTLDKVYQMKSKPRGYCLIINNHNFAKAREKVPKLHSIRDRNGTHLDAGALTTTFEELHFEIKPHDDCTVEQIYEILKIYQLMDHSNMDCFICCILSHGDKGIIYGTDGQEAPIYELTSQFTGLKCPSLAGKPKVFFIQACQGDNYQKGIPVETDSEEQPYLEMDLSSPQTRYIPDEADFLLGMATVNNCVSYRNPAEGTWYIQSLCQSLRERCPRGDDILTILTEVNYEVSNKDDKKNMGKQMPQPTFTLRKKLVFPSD
UniProt P10415: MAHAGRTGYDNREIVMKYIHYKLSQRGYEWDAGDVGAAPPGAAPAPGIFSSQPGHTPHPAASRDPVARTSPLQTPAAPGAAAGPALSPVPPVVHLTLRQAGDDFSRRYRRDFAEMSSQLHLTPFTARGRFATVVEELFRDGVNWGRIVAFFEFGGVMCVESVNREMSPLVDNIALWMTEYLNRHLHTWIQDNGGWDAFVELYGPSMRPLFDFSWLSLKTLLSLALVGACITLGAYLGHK

In test [1] the target is caspase 8 (human (endogenous in MIP101, RKO, MiaPaCa and MCF-7 cells)) (UniProt Q14790). The test can be described thus: co-IP; resistant RKO/5FU, MIP/5FU and MiaPaca/CPT cells exposed to 100 ng/mL rSPARC before co-IP of Bcl2 and caspase 8 (membrane fraction in Fig. 5D); also rSPARC with anti-SPARC antibodies.
Test [2] shares this target. The test can be described thus: condition: only in chemosensitive MIP/ZEO and MIP/SP cells; co-IP; chemosensitive MIP/ZEO and MIP/SP cells; antibodies against caspase 8 and Bcl2.
Test [3] has the same target. The test can be described thus: co-IP; chemotherapy-resistant cells (MIP/5FU, RKO/5FU, RKO/CPT, RKO/CIS, MiaPaca/CPT, MCF-7/CIS); antibodies against caspase 8 and Bcl2; Protein A:Protein G beads, PBS, 4°C.
Test [4] shares this target. The experiment in a line: condition: only cells incubated with antibodies blocking the N-terminus of caspase 8 (1.5–3 µg); co-IP; chemotherapy-resistant cells incubated with antibodies targeting the N-terminus (1.5–3 µg) or the C-terminus of caspase 8 before co-IP of Bcl2 and caspase 8.

No constants are given. Whether binding was seen depends on the method and setting. Binding seen in cells or lysates may run through a third protein. Some results given as binding are weak or reduced against the parent protein; the word gives no strength.

For Bcl2 (from UniProt P10415 1-239), the binding entry in test [1] is given as “binds”; in test [2], “no binding”; in test [3], “binds”; in test [4], “no binding”.
